Laboratory results as given in the supplement of paper PMC10849652.
This is one part of the list.

By UniProt entry, the sequences of proteins in these tests, tags left out. Where a name states a change or a piece, a line headed by the entry shows the natural chain unless it says otherwise.
UniProt Q9Y2E8: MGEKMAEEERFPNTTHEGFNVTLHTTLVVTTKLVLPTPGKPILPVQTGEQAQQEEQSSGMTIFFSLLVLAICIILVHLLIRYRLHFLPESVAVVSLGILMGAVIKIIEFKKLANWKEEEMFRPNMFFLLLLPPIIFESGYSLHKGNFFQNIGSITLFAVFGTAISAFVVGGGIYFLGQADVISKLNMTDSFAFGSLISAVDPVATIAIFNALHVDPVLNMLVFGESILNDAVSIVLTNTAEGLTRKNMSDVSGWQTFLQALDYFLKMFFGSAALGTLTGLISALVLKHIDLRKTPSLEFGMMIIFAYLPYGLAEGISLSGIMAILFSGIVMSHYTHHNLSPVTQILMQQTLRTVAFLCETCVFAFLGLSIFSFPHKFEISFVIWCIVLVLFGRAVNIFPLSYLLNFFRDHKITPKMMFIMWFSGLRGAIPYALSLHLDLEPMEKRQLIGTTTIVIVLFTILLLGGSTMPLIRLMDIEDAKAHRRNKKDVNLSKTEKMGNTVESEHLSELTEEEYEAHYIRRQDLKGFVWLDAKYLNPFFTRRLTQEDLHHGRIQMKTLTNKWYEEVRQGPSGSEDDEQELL
UniProt O60906: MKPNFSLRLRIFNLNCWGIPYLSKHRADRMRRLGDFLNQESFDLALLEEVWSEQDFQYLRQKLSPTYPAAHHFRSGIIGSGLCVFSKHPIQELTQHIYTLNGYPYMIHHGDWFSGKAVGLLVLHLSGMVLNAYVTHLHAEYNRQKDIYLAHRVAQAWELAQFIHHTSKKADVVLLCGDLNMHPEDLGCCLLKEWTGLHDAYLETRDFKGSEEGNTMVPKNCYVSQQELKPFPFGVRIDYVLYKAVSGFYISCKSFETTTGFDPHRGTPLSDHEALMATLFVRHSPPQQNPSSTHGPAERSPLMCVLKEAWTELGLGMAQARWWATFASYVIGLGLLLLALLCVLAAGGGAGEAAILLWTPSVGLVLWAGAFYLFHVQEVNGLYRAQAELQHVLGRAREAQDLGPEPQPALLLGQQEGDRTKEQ
UniProt P09012, whole entry, looked up: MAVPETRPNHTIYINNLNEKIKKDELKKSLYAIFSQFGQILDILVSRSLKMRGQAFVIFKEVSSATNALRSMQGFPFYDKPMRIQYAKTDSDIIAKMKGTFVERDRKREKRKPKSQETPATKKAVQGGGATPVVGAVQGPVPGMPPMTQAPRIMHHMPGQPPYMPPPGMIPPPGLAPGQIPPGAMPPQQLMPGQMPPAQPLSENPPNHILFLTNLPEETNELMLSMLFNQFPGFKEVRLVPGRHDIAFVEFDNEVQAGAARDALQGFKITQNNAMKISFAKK
UniProt O00161: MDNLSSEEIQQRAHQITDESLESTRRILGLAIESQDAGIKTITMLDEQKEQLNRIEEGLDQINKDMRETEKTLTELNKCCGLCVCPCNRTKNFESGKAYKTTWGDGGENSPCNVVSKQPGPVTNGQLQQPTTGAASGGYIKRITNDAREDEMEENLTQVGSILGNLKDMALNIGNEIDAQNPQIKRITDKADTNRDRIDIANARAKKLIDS
UniProt O14508, whole entry, looked up: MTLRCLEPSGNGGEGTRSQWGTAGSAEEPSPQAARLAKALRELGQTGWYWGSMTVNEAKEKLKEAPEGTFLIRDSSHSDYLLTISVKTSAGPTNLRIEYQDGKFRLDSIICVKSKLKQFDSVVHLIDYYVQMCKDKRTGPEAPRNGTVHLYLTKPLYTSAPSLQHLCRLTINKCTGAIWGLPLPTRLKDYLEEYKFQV
UniProt P19634, whole entry, looked up: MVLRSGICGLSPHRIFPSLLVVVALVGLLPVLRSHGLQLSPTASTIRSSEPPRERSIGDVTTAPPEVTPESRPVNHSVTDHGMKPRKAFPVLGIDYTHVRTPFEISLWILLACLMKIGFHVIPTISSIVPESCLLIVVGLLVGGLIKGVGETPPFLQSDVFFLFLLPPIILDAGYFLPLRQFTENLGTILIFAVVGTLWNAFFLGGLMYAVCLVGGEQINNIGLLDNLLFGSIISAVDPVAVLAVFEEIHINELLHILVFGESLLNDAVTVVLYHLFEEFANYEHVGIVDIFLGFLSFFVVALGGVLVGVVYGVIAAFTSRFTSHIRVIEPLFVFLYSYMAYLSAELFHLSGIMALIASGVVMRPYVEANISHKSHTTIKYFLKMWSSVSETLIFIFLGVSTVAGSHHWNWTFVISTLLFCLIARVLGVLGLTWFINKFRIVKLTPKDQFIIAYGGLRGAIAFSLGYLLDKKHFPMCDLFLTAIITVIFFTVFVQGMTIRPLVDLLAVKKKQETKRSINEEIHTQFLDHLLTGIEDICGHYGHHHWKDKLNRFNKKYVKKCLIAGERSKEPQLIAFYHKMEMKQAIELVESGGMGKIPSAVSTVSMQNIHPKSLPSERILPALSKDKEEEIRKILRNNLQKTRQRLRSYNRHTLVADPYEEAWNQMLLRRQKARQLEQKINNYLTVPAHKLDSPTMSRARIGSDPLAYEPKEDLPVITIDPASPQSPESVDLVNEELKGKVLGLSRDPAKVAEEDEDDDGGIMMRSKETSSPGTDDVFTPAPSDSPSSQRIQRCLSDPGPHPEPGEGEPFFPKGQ
UniProt O60749: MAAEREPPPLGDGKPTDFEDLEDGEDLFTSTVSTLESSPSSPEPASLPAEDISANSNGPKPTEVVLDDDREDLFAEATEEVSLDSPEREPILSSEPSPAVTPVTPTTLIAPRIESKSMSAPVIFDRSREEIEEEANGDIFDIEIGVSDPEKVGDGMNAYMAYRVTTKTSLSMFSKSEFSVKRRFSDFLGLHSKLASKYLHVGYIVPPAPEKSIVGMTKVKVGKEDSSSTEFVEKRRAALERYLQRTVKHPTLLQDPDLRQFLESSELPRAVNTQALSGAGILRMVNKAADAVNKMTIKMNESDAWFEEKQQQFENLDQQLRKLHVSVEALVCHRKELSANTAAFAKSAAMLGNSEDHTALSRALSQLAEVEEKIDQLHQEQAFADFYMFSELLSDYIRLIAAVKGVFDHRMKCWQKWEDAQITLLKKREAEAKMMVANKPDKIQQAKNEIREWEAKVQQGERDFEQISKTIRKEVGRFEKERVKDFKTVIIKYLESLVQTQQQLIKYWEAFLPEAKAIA
UniProt Q92581: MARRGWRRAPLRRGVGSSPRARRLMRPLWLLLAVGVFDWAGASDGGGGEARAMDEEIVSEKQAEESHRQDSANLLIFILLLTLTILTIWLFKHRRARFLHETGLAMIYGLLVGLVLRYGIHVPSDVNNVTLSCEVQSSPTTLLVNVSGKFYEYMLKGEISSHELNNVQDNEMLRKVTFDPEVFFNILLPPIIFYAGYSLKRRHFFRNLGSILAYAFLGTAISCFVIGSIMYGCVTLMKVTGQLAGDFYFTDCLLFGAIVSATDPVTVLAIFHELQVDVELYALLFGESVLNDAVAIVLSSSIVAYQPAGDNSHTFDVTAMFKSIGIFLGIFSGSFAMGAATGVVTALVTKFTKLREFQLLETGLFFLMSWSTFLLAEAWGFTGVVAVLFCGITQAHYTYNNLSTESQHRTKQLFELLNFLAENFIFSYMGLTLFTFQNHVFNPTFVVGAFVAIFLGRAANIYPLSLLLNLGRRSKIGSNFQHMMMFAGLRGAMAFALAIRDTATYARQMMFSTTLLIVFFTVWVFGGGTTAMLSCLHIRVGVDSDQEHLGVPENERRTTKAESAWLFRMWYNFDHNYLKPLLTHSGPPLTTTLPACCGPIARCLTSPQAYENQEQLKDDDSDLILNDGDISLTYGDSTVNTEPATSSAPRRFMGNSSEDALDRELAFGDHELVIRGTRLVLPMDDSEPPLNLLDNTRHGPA
UniProt Q8TEV9: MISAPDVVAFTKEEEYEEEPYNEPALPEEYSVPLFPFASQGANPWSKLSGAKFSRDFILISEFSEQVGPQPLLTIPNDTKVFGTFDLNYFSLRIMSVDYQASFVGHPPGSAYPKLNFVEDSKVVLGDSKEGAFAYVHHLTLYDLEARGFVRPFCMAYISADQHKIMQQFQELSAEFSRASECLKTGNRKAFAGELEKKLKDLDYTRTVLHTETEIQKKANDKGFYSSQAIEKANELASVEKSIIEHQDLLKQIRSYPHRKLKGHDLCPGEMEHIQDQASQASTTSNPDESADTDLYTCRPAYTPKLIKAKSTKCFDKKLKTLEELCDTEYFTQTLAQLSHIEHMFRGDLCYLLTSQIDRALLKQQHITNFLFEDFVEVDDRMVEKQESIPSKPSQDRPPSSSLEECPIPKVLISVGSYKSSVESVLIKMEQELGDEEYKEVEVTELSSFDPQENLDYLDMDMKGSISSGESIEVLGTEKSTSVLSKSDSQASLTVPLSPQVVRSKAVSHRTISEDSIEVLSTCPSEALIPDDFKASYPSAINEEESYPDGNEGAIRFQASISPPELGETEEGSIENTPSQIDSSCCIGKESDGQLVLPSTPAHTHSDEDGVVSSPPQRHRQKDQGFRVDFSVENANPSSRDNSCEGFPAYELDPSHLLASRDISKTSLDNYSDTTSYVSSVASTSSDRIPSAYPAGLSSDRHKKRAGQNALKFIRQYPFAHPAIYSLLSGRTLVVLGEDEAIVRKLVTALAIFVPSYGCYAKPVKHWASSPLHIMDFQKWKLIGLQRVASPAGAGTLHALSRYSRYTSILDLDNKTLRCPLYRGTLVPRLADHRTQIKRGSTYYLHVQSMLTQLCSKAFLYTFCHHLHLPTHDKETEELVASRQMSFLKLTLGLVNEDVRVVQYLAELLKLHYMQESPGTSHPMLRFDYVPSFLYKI
UniProt Q96R06: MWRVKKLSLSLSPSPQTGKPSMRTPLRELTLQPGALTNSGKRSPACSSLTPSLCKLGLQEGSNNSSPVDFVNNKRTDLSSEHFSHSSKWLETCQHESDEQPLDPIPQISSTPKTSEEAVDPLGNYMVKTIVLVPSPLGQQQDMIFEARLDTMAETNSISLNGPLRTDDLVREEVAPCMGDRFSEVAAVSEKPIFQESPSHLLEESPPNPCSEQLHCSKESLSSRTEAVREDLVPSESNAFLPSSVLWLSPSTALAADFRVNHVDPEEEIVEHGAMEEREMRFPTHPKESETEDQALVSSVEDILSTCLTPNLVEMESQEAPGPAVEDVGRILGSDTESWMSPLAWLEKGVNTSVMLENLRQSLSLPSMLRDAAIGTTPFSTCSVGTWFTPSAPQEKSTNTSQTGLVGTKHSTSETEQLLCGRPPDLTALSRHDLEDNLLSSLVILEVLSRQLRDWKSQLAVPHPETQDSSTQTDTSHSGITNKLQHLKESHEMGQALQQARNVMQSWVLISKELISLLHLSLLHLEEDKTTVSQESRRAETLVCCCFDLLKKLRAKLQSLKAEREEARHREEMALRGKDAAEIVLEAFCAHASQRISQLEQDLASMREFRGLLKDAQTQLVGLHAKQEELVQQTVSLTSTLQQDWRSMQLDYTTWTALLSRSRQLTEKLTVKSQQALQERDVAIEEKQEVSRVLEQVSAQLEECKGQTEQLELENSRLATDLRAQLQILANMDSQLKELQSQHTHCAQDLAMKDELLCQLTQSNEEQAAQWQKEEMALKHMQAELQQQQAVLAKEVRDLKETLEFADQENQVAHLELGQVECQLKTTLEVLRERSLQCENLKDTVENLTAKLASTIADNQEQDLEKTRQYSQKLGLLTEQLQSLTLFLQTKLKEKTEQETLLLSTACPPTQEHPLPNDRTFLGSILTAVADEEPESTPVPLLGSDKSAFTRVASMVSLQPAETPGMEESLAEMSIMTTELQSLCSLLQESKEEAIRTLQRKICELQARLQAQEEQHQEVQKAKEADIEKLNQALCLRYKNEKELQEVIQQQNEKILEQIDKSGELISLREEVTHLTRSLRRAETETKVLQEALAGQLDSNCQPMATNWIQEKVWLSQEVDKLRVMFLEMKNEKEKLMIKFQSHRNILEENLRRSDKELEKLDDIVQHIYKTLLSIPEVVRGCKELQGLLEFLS
UniProt Q8WVI0: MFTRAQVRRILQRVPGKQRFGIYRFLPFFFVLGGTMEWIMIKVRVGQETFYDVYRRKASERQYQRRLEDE
UniProt Q92925, whole entry, looked up: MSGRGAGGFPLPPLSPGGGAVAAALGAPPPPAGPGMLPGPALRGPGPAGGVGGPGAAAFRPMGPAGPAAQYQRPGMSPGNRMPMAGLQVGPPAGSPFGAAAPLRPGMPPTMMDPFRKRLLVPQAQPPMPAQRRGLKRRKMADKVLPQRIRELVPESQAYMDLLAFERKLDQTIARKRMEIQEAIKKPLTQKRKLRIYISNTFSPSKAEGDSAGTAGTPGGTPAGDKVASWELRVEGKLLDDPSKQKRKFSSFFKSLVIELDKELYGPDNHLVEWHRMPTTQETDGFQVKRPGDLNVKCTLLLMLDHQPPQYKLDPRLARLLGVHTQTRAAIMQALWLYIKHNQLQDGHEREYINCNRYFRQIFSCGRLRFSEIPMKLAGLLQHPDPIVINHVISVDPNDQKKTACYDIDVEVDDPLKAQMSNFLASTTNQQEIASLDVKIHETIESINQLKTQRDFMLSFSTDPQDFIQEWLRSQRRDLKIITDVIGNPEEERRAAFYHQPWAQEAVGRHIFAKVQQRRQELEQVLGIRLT

Experiments:
Test in all cases: log2 fold change, soluble protein after heating vs DMSO (PISA); higher = thermal stabilisation; K562 cells, 10 uM, 30 min; active = over 0.2 and 3.5 SD of the protein, either way, in both replicates (recomputed)
[1] = compound: C#Cc1cccc(Nc2ncnc3cc(OCCOC)c(OCCOC)cc23)c1 [erlotinib]
In short: (§1)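 K562 cells at 2×10^6 cells/mL were given 10 μM compound for 30 min. Aliquots then went through 3 min of heating across 48°C-58°C, were pooled, and were extracted in PBS with 0.5% NP-40 at 4°C, and the supernatant after 21,000xg for 90 min was quantified by TMTpro 16plex LC-MS/MS with channel sums equalised. Thermal stability relative to control samples, from duplicates, is given as log2 fold change.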

[2] = compound: C/C(=N\NC(=O)C1=CC(=CC=C1)S(=O)(=O)N2CCOCC2)/C3=C(C=CC(=C3)Cl)O
In short: as §1

[3] = compound: C1=CC(=C(C=C1Cl)C2=NC3=NC=CN=C3C(=N2)NC4=CC=NC=C4)F
In short: as §1

[4] = compound: C1=CC(=CC=C1C2=NC3=C(N2)C=C(C=C3)C(=O)N)OC4=CC=C(C=C4)Cl
In short: as §1

[5] = compound: C1=CC2=C(C=CC(=C2)/C=C\3/C(=O)NC(=NCC4=CC=CS4)S3)N=C1
In short: as §1

[6] = compound: C1=CC2=NC=CN=C2C=C1/C=C/3\C(=O)NC(=O)S3
In short: as §1

[7] = compound: C1=CC=C(C=C1)C2=NC(=C(N2)C3=CC=NC=C3)C4=CC(=C(C=C4)Cl)O
In short: as §1

[8] = compound: C1=CC=C2C(=C1)C3=NNC4=CC=CC(=C43)C2=O
In short: as §1

[9] = compound: C1CCN(C1)C(=O)NC2=CC=CC(=C2)NC3=NC=C(C(=N3)NCCC4=CN=CN4)Br
In short: as §1

[10] = compound: C1CN(CCC1(CC2=CC=C(C=C2)Cl)N)C3=NC=NC4=C3C=CN4
In short: as §1

Measured: log2 fold change

SNF8 (UniProt Q96H20)
inactive: [1] -0.011 | [2] 0.001 | [3] 0.034 | [4] 0.033 | [5] -0.029 | [6] 0.02 | [7] -0.033 | [8] -0.042 | [9] 0 | [10] 0.065

SLC9A8 isoform 2 (UniProt Q9Y2E8)
inactive: [1] -0.025 | [2] -0.018 | [3] 0.066 | [4] 0.012 | [5] 0.011 | [6] 0.059 | [8] -0.034 | [9] 0.044 | [10] 0.013

SMPD2 (UniProt O60906)
inactive: [1] 0.068 | [2] -0.028 | [3] 0.013 | [4] 0.057 | [5] 0.083 | [6] 0.04 | [7] -0.053 | [8] -0.092 | [9] 0.009 | [10] 0.016

SNX25 (UniProt Q9H3E2)
inactive: [1] -0.22 | [2] -0.364 | [4] 0.001 | [5] 0.149 | [8] -0.039

SND1 (UniProt Q7KZF4)
inactive: [1] -0.022 | [2] -0.077 | [3] -0.64 | [4] 0.031 | [5] -0.072 | [6] -0.032 | [7] -0.151 | [8] 0.036 | [9] -0.026 | [10] -0.27

SNX27 (UniProt Q96L92)
inactive: [1] 0.023 | [2] -0.029 | [3] -0.265 | [4] 0.075 | [5] -0.007 | [7] 0.206 | [8] 0.18 | [9] -0.125 | [10] 0.023

SLIRP (UniProt Q9GZT3)
inactive: [1] 0.019 | [2] 0.205 | [3] 0.27 | [4] -0.014 | [5] 0.067 | [6] 0.093 | [7] 0.023 | [8] -0.187 | [9] -0.013 | [10] -0.028

SMS (UniProt P52788)
inactive: [1] -0.003 | [2] 0.017 | [3] 0.053 | [4] 0.008 | [5] 0.011 | [6] 0.03 | [7] 0.014 | [8] -0.017 | [9] -0.001 | [10] 0.048

SNRPA (UniProt P09012)
inactive: [1] -0.072 | [2] -0.122 | [3] -0.101 | [4] -0.006 | [5] -0.074 | [6] 0.058 | [7] -0.104 | [8] -0.046 | [9] 0.084 | [10] -0.072

SLC7A6OS (UniProt Q96CW6)
inactive: [1] -0.015 | [2] 0.018 | [3] 0.035 | [4] -0.039 | [5] 0.007 | [6] 0.042 | [7] 0.045 | [8] -0.025 | [9] -0.015 | [10] 0.022

SNAP23 (UniProt O00161)
inactive: [1] -0.017 | [2] 0.007 | [3] -0.001 | [4] 0.015 | [5] -0.045 | [6] 0.04 | [7] -0.021 | [8] 0.051 | [9] 0.015 | [10] 0.002

SOCS2 (UniProt O14508)
inactive: [1] 0.025 | [2] 0.085 | [3] 0 | [4] -0.045 | [5] 0.049 | [6] 0.032 | [7] -0.066 | [8] -0.023 | [9] -0.001 | [10] -0.011

SLC9A1 (UniProt P19634)
inactive: [1] -0.065 | [2] 0.071 | [3] 0.084 | [4] 0.1 | [5] 0.002 | [6] 0.054 | [8] 0.018 | [9] 0.179 | [10] 0.157

SMG9 (UniProt Q9H0W8)
inactive: [1] 0.031 | [2] 0.02 | [3] -0.115 | [4] -0.038 | [5] -0.005 | [6] 0.053 | [8] 0.071 | [9] -0.082 | [10] 0.08

SNX2 (UniProt O60749)
inactive: [1] 0.043 | [2] 0.075 | [3] 0.002 | [4] 0.041 | [5] 0.067 | [6] -0.059 | [7] -0.057 | [8] -0.049 | [9] 0.006 | [10] -0.013

Pulled one by one from the list above, 2 records:
SNF8 (UniProt Q96H20)
inactive: [1] -0.011 | [2] 0.001 | [3] 0.034 | [4] 0.033 | [5] -0.029 | [6] 0.02 | [7] -0.033 | [8] -0.042 | [9] 0 | [10] 0.065

SNX2 (UniProt O60749)
inactive: [1] 0.043 | [2] 0.075 | [3] 0.002 | [4] 0.041 | [5] 0.067 | [6] -0.059 | [7] -0.057 | [8] -0.049 | [9] 0.006 | [10] -0.013

Following part

SMG1 (UniProt Q96Q15)
inactive: [1] 0.012 | [2] 0.101 | [3] 0.066 | [4] -0.012 | [5] -0.029 | [6] 0 | [7] -0.088 | [8] 0.049 | [9] -0.054 | [10] 0.066

SLC9A6 isoform 3 (UniProt Q92581)
inactive: [1] 0.006 | [2] 0.013 | [4] -0.103 | [5] -0.022 | [6] 0.18 | [8] -0.068 | [9] 0.021 | [10] 0.006

SMAD5 (UniProt Q99717)
inactive: [1] -0.236 | [2] -0.026 | [3] 0.274 | [4] -0.402 | [5] -0.045 | [6] 0.023 | [7] 0.094 | [8] 0.029 | [9] -0.052 | [10] -0.011

SMCR8 (UniProt Q8TEV9)
inactive: [1] -0.021 | [2] 0.06 | [3] -0.066 | [4] 0.064 | [5] 0.053 | [6] -0.04 | [8] -0.011 | [9] 0.036 | [10] 0.084

SPAG5 (UniProt Q96R06)
inactive: [1] 0.095 | [2] -0.17 | [3] -0.183 | [4] 0 | [5] 0.178 | [6] 0.076 | [7] -0.144 | [8] -0.079 | [9] -0.06 | [10] -0.134

SMIM4 (UniProt Q8WVI0)
inactive: [1] -0.163 | [2] 0.002 | [3] -0.045 | [4] 0.126 | [5] -0.04 | [6] -0.118 | [8] 0.156 | [9] 0.084 | [10] -0.134

SMAD4 (UniProt Q13485)
inactive: [1] -0.017 | [2] 0.032 | [3] 0.041 | [4] 0 | [5] 0.023 | [6] 0.064 | [7] 0.022 | [8] -0.104 | [9] -0.044 | [10] 0.058

SMARCA2 (UniProt P51531)
inactive: [1] 0.007 | [2] -0.149 | [4] -0.062 | [5] 0.069 | [6] -0.01 | [7] 0.13 | [8] -0.155

SMC3 (UniProt Q9UQE7)
inactive: [1] -0.02 | [2] 0.024 | [3] 0.038 | [4] 0.026 | [5] 0.009 | [6] 0.012 | [7] -0.053 | [8] -0.157 | [9] -0.005 | [10] 0.03

SMN1 (UniProt Q16637)
inactive: [1] -0.013 | [2] 0.015 | [3] -0.229 | [4] 0 | [5] -0.273 | [6] 0.004 | [7] 0.013 | [8] -0.199 | [9] -0.018 | [10] -0.067

SMARCD2 (UniProt Q92925)
inactive: [1] 0.031 | [2] 0.125 | [4] 0.092 | [5] -0.006 | [8] 0.049 | [9] -0.225 | [10] -0.319

SOX5 (UniProt P35711)
inactive: [1] 0.009 | [2] 0.006 | [4] 0.125 | [5] 0.047 | [6] 0.018 | [7] -0.049 | [8] 0.012 | [9] -0.069 | [10] 0.095

SPAG9 isoform 4 (UniProt O60271)
inactive: [1] 0.019 | [2] 0.048 | [4] -0.087 | [5] -0.103 | [6] -0.065 | [7] 0.272 | [8] 0.04 | [9] 0.03 | [10] 0.119

SLC8B1 (UniProt Q6J4K2)
inactive: [1] 0.111 | [2] 0.089 | [4] 0.003 | [5] -0.039 | [6] 0.095 | [7] 0.016 | [8] 0.032

SMC5 (UniProt Q8IY18)
inactive: [1] -0.041 | [2] 0.091 | [3] -0.091 | [4] 0.04 | [5] 0.014 | [6] 0.005 | [7] -0.017 | [8] -0.141 | [9] 0.042 | [10] 0.116

SPAG7 (UniProt O75391)
inactive: [1] 0.012 | [2] 0.002 | [3] 0.049 | [4] -0.007 | [5] -0.078 | [6] 0.059 | [7] -0.055 | [8] 0.048 | [9] 0.006 | [10] 0.031
